PubChem BioAssay AID1259254, NCATS | 2017
This is one part, drawn at random, of about 59,000 deposited reagents. In the full data, about 1,550 (2.6%) were called active. 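G2 share is only a proxy for re-replication; each gene was hit by three separate siRNAs, and active genes were retested.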 Unmarked entries are inactive. The numbers tell different reagents against one gene apart. Not all columns of the deposit are shown. The record does not give: the amount of reagent.

Purpose: 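Gene knock-downs that lead to re-replication, shown by excess G2 DNA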 (primary screen)
Cell system: human HCT116 colorectal cancer cells
Reagents: single siRNA against human genes
Time to read-out: 3 days
Detection: 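Imaged Hoechst DNA stain sorts each cell into a cycle phase by DNA amount; per plate, G2 fraction set to 0% for non-targeting and 100% for GMNN siRNA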
Reading the numbers: G2 robust z-score: higher = more G2 cells, more excess DNA replication
Hit rule: 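Active siRNAs have a G2 robust z of 5 or more median absolute deviations over the median, which in these data means about 38% or higher of GMNN control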

Which result is listed for CAMTA1 (GeneID 23261) #1?
G2 robust z-score: 1.25

With CAMTA1 (GeneID 23261) #2, what does the deposit list?
G2 robust z-score: 0.327

For CAMTA1 (GeneID 23261) #3, how do the results read?
G2 robust z-score: -0.588

How did the screen score TERF2 (GeneID 7014) #1?
G2 robust z-score: -0.517

What is on record for TERF2 (GeneID 7014) #2?
G2 robust z-score: 2.2

For TERF2 (GeneID 7014) #3, what does the deposit list?
G2 robust z-score: 1.52

Which result is listed for HNF1A (GeneID 6927) #1?
G2 robust z-score: 0.0326

For HNF1A (GeneID 6927) #2, how do the results read?
G2 robust z-score: 0.993

For HNF1A (GeneID 6927) #3, what was measured?
G2 robust z-score: 8.42 (active)

For ACBD7 (GeneID 414149) #1, what does the deposit list?
G2 robust z-score: -0.531

With ACBD7 (GeneID 414149) #2, how do the results read?
G2 robust z-score: -0.453

For ACBD7 (GeneID 414149) #3, what does the deposit list?
G2 robust z-score: -0.887

With CAPNS2 (GeneID 84290) #1, what was measured?
G2 robust z-score: -0.39

With CAPNS2 (GeneID 84290) #2, how do the results read?
G2 robust z-score: -0.594

What is on record for CAPNS2 (GeneID 84290) #3?
G2 robust z-score: 1.04

A run of entries from the list above:
CAMTA1 (GeneID 23261) #3: G2 robust z-score = -0.588
TERF2 (GeneID 7014) #1: G2 robust z-score = -0.517
TERF2 (GeneID 7014) #2: G2 robust z-score = 2.2
TERF2 (GeneID 7014) #3: G2 robust z-score = 1.52
HNF1A (GeneID 6927) #1: G2 robust z-score = 0.0326

Additional entries follow.
With KIAA0930 (GeneID 23313) #1, how do the results read?
G2 robust z-score: -0.0181

What did the screen give for KIAA0930 (GeneID 23313) #2?
G2 robust z-score: -0.511

For KIAA0930 (GeneID 23313) #3, how do the results read?
G2 robust z-score: 1.3

For VAV3 (GeneID 10451) #1, what was measured?
G2 robust z-score: -1.41

How did the screen score VAV3 (GeneID 10451) #2?
G2 robust z-score: 0.533

Which result is listed for VAV3 (GeneID 10451) #3?
G2 robust z-score: 0.693

Which result is listed for ZNF785 (GeneID 146540) #1?
G2 robust z-score: -0.862

With ZNF785 (GeneID 146540) #2, what does the deposit list?
G2 robust z-score: 0.846

For ZNF785 (GeneID 146540) #3, what does the deposit list?
G2 robust z-score: 0.0873

With ACP2 (GeneID 53) #1, what was measured?
G2 robust z-score: 0.584

What is on record for ACP2 (GeneID 53) #2?
G2 robust z-score: -0.928

How did the screen score ACP2 (GeneID 53) #3?
G2 robust z-score: -0.6

With BTN3A1 (GeneID 11119) #1, how do the results read?
G2 robust z-score: -0.0877

What is on record for BTN3A1 (GeneID 11119) #2?
G2 robust z-score: -1.2

With BTN3A1 (GeneID 11119) #3, how do the results read?
G2 robust z-score: 1.69
